{
  "sequences": {"note": "Protein sequences, listed by entry. Tags and fused reporters are not part of them. Lines headed by an entry give the natural chain unless they say otherwise; changes in a name come on top. Chains listed by the source or under a name are the forms on record and can include a tag or linker.", "C7orf10 chromosome 7 open reading frame 10 (Q9HAC7-3, form named)": "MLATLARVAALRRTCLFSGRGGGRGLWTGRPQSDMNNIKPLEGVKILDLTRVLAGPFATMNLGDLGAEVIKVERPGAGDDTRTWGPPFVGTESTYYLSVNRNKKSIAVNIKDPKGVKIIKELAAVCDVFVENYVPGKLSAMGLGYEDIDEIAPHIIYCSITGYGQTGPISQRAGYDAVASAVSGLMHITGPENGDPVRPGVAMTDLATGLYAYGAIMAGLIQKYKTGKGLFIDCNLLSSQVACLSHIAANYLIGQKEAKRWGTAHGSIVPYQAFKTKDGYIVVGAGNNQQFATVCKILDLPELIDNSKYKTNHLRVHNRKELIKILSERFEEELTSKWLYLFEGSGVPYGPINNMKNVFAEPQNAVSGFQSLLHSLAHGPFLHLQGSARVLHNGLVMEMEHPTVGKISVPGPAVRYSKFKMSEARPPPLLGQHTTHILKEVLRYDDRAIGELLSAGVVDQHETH"},
  "source": "paper PMC3597719",
  "biological_target": "DENV2 NS1 protein (New Guinea C strain) fused to the GAL4 DNA-binding domain (dengue virus 2, New Guinea C (NGC) strain) (UniProt P14340)",
  "assay": "two-hybrid",
  "note": "No constants are given. Whether binding was seen depends on the method and setting. Some results given as binding are weak or reduced against the parent protein; the word gives no strength.",
  "data": [
    {"substance": "C7orf10 chromosome 7 open reading frame 10 (from UniProt Q9HAC7-3 1-464)", "values": [
      {"measurement": "binding", "value": "binds"}
    ]}
  ]
}
